Test results published in US20180148492A1 (CHILDREN S HOSPITAL MEDICAL CENTER, published 2018).
No constants are given. Whether binding was seen depends on the method and setting. For some of these results: Binding seen in cells or lysates may run through a third protein. Some results given as binding are weak or reduced against the parent protein; the word gives no strength. Sequences can lack the tags named with a protein.

Key:
[1] = biological target: T1, integrin α4 overexpressed in HEK 293T cells (UniProt P13612); experiment: co-immunoprecipitation from HEK 293T cells overexpressing both proteins
T1 sequence (looked up): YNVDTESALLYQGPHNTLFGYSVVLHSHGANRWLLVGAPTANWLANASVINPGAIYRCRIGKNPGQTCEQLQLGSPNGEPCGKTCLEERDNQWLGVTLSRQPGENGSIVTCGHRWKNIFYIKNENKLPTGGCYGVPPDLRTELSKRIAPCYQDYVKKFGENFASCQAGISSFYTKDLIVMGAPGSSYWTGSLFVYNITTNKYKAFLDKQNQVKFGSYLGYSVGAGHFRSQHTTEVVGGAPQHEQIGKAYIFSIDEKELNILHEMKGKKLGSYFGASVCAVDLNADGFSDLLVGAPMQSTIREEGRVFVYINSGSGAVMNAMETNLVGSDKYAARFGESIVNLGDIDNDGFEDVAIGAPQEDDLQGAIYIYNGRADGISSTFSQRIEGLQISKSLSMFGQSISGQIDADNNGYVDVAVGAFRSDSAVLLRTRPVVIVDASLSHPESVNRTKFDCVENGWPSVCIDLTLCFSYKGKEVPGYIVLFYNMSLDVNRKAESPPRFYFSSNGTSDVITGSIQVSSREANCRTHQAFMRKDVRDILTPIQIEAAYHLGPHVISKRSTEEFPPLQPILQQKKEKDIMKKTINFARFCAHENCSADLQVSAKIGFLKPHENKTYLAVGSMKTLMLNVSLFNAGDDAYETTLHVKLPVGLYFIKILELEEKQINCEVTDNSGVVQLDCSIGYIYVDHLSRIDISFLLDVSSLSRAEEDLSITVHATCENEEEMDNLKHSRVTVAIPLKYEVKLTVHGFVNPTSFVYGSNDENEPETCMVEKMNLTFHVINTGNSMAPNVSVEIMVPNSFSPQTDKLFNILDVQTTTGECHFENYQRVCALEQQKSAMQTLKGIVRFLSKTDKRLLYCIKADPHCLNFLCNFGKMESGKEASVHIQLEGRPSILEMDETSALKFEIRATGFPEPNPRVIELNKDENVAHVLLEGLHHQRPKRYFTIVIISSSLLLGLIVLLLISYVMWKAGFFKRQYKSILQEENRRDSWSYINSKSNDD

[2] = biological target: T2, V5-tagged integrin αE (human) (UniProt P38570); experiment: summary at the head of the examples; the biochemical assay is taken to be the co-immunoprecipitation
T2 sequence (looked up): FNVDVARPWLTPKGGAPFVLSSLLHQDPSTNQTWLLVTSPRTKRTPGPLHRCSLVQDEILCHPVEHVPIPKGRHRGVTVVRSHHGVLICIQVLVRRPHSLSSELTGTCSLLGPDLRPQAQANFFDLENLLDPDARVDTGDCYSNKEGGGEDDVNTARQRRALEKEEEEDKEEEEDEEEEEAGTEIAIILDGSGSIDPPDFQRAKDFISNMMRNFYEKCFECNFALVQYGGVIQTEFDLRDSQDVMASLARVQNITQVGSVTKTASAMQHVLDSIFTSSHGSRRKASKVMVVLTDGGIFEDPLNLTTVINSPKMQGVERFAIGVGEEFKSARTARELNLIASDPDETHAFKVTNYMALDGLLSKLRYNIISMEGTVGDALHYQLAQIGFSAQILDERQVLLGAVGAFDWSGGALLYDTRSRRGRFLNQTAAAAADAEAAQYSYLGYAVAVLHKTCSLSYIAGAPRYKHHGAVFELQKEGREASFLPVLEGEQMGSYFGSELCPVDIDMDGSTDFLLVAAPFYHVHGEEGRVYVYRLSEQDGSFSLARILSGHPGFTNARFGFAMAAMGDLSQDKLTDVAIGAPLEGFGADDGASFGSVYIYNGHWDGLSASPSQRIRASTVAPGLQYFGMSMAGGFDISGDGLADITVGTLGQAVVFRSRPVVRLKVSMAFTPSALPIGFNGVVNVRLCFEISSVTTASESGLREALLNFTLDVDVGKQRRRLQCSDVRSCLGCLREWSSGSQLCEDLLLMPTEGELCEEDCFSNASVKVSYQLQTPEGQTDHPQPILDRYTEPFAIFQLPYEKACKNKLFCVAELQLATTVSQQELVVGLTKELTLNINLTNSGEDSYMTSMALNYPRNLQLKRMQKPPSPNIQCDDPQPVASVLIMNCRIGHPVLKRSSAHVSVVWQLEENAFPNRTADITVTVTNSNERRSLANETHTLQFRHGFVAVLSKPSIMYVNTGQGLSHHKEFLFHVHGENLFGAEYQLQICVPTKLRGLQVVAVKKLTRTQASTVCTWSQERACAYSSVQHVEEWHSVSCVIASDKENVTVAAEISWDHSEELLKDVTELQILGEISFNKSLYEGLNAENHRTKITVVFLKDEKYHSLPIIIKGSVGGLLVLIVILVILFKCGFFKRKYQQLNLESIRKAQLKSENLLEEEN

Myc-tagged CDH26 (human) [3] = biological target: T3, Myc-tagged CDH26 (human) (UniProt Q8IXH8); experiment: co-immunoprecipitation from co-transfected HEK 293T cells, western blot
T3 sequence: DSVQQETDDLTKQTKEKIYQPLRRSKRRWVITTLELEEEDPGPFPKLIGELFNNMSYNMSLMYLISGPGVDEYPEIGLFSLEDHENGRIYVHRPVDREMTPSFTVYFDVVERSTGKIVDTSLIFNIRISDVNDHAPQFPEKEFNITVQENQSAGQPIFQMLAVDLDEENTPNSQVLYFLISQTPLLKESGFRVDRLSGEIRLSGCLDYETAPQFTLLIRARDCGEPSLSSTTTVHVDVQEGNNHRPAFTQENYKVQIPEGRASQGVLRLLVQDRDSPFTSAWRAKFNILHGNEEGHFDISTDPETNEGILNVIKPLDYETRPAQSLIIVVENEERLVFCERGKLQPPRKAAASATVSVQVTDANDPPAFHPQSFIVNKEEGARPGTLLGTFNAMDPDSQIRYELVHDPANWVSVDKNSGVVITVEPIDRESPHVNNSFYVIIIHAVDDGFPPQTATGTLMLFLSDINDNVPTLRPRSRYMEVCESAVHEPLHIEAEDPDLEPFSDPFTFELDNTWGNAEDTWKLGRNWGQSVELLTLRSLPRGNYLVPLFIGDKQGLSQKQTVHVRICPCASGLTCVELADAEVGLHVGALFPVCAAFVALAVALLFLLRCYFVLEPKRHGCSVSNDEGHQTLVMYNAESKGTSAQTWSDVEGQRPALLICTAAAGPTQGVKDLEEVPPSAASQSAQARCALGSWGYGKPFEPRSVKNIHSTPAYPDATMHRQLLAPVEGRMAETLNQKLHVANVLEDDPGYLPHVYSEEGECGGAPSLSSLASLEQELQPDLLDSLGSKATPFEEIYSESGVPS

Myc-tagged CDH26 (human) [4] = biological target: T3, Myc-tagged CDH26 (human); experiment: summary at the head of the examples
Myc-tagged CDH26 (human) [5] = biological target: T3, Myc-tagged CDH26 (human); experiment: summary of the co-immunoprecipitation of differently tagged CDH26
HA-tagged CDH26 (human) [6] = biological target: T4, HA-tagged CDH26 (human) (UniProt Q8IXH8); experiment: co-immunoprecipitation from HEK 293T cells overexpressing both proteins
T4 sequence: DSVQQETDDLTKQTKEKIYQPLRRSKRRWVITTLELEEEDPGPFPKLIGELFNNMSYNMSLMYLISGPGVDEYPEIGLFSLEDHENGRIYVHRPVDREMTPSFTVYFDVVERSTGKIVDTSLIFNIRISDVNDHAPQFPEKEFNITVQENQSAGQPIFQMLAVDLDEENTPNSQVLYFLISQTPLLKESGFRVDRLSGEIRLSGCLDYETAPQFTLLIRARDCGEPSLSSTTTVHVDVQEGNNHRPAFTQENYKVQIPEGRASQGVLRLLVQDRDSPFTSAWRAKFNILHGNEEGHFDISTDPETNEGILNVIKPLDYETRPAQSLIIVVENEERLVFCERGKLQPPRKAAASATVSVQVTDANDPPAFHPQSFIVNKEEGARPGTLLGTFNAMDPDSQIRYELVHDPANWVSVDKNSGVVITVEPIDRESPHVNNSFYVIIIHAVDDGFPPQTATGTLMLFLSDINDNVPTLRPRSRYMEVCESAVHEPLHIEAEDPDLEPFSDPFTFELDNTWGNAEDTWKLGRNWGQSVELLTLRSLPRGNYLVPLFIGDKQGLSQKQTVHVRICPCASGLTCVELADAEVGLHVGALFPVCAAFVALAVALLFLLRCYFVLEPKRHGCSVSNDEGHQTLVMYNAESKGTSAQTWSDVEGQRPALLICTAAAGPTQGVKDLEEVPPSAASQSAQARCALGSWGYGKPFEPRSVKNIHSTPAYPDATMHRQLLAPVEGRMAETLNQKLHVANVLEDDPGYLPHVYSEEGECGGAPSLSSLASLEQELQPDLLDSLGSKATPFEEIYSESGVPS

HA-tagged CDH26 (human) [7] = biological target: T4, HA-tagged CDH26 (human); experiment: summary of the co-immunoprecipitations

Measured: binding

B1: HA-tagged CDH26 (receptor, not shown: small tags and cut ends)
chain: DSVQQETDDLTKQTKEKIYQPLRRSKRRWVITTLELEEEDPGPFPKLIGELFNNMSYNMSLMYLISGPGVDEYPEIGLFSLEDHENGRIYVHRPVDREMTPSFTVYFDVVERSTGKIVDTSLIFNIRISDVNDHAPQFPEKEFNITVQENQSAGQPIFQMLAVDLDEENTPNSQVLYFLISQTPLLKESGFRVDRLSGEIRLSGCLDYETAPQFTLLIRARDCGEPSLSSTTTVHVDVQEGNNHRPAFTQENYKVQIPEGRASQGVLRLLVQDRDSPFTSAWRAKFNILHGNEEGHFDISTDPETNEGILNVIKPLDYETRPAQSLIIVVENEERLVFCERGKLQPPRKAAASATVSVQVTDANDPPAFHPQSFIVNKEEGARPGTLLGTFNAMDPDSQIRYELVHDPANWVSVDKNSGVVITVEPIDRESPHVNNSFYVIIIHAVDDGFPPQTATGTLMLFLSDINDNVPTLRPRSRYMEVCESAVHEPLHIEAEDPDLEPFSDPFTFELDNTWGNAEDTWKLGRNWGQSVELLTLRSLPRGNYLVPLFIGDKQGLSQKQTVHVRICPCASGLTCVELADAEVGLHVGALFPVCAAFVALAVALLFLLRCYFVLEPKRHGCSVSNDEGHQTLVMYNAESKGTSAQTWSDVEGQRPALLICTAAAGPTQGVKDLEEVPPSAASQSAQARCALGSWGYGKPFEPRSVKNIHSTPAYPDATMHRQLLAPVEGRMAETLNQKLHVANVLEDDPGYLPHVYSEEGECGGAPSLSSLASLEQELQPDLLDSLGSKATPFEEIYSESGVPS
not listed: HA-tagged CDH26 (human) [6] | HA-tagged CDH26 (human) [7]
binds: all other assays above

B2: V5-tagged integrin αE (receptor, human, UniProt P38570 19-1179, looked up, not shown: small tags and cut ends)
chain: FNVDVARPWLTPKGGAPFVLSSLLHQDPSTNQTWLLVTSPRTKRTPGPLHRCSLVQDEILCHPVEHVPIPKGRHRGVTVVRSHHGVLICIQVLVRRPHSLSSELTGTCSLLGPDLRPQAQANFFDLENLLDPDARVDTGDCYSNKEGGGEDDVNTARQRRALEKEEEEDKEEEEDEEEEEAGTEIAIILDGSGSIDPPDFQRAKDFISNMMRNFYEKCFECNFALVQYGGVIQTEFDLRDSQDVMASLARVQNITQVGSVTKTASAMQHVLDSIFTSSHGSRRKASKVMVVLTDGGIFEDPLNLTTVINSPKMQGVERFAIGVGEEFKSARTARELNLIASDPDETHAFKVTNYMALDGLLSKLRYNIISMEGTVGDALHYQLAQIGFSAQILDERQVLLGAVGAFDWSGGALLYDTRSRRGRFLNQTAAAAADAEAAQYSYLGYAVAVLHKTCSLSYIAGAPRYKHHGAVFELQKEGREASFLPVLEGEQMGSYFGSELCPVDIDMDGSTDFLLVAAPFYHVHGEEGRVYVYRLSEQDGSFSLARILSGHPGFTNARFGFAMAAMGDLSQDKLTDVAIGAPLEGFGADDGASFGSVYIYNGHWDGLSASPSQRIRASTVAPGLQYFGMSMAGGFDISGDGLADITVGTLGQAVVFRSRPVVRLKVSMAFTPSALPIGFNGVVNVRLCFEISSVTTASESGLREALLNFTLDVDVGKQRRRLQCSDVRSCLGCLREWSSGSQLCEDLLLMPTEGELCEEDCFSNASVKVSYQLQTPEGQTDHPQPILDRYTEPFAIFQLPYEKACKNKLFCVAELQLATTVSQQELVVGLTKELTLNINLTNSGEDSYMTSMALNYPRNLQLKRMQKPPSPNIQCDDPQPVASVLIMNCRIGHPVLKRSSAHVSVVWQLEENAFPNRTADITVTVTNSNERRSLANETHTLQFRHGFVAVLSKPSIMYVNTGQGLSHHKEFLFHVHGENLFGAEYQLQICVPTKLRGLQVVAVKKLTRTQASTVCTWSQERACAYSSVQHVEEWHSVSCVIASDKENVTVAAEISWDHSEELLKDVTELQILGEISFNKSLYEGLNAENHRTKITVVFLKDEKYHSLPIIIKGSVGGLLVLIVILVILFKCGFFKRKYQQLNLESIRKAQLKSENLLEEEN
binds: HA-tagged CDH26 (human) [6] | HA-tagged CDH26 (human) [7]
